The list shows a part of the results. Residues, ends and D or L forms follow the SMILES beside them. *: point of attachment. Cbz = O=C(OCc1ccccc1)*
What was measured:
Assay in all cases: log2 fold change, soluble protein after heating vs DMSO (PISA); higher = thermal stabilisation; K562 cells, 10 uM, 30 min; active = over 0.2 and 3.5 SD of the protein, either way, in both replicates (recomputed)
[1] = compound: C#Cc1cccc(Nc2ncnc3cc(OCCOC)c(OCCOC)cc23)c1 [erlotinib]
Procedure, shortened: (§1)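 K562 cells at 2×10^6 cells/mL were given 10 μM compound for 30 min. Aliquots then went through 3 min of heating across 48°C-58°C, were pooled, and were extracted in PBS with 0.5% NP-40 at 4°C, and the supernatant after 21,000xg for 90 min was quantified by TMTpro 16plex LC-MS/MS with channel sums equalised. Thermal stability relative to control samples, from duplicates, is given as log2 fold change.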

Chains of the proteins cited; added tags and fusions are not shown. Lines headed by an entry give the natural chain unless they say otherwise; changes in a name come on top.
UniProt P31939: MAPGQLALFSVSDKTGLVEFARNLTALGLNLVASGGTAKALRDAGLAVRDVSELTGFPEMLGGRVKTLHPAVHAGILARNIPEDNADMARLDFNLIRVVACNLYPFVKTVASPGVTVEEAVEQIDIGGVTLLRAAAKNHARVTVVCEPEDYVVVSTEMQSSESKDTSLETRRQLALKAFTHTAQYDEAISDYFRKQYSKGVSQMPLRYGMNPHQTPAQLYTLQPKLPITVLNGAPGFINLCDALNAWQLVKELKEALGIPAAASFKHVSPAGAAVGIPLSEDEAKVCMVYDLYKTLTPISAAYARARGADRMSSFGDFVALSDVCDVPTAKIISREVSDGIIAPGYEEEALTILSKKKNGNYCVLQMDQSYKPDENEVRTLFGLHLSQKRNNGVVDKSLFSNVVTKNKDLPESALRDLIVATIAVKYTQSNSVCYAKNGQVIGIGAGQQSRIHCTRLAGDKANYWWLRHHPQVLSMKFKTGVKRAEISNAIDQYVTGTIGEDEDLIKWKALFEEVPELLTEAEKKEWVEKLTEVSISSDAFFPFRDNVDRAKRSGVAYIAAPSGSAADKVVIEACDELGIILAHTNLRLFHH
UniProt P56385: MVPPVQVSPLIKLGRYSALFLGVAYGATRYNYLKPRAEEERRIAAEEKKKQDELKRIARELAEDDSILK
UniProt Q9Y487, whole entry, looked up: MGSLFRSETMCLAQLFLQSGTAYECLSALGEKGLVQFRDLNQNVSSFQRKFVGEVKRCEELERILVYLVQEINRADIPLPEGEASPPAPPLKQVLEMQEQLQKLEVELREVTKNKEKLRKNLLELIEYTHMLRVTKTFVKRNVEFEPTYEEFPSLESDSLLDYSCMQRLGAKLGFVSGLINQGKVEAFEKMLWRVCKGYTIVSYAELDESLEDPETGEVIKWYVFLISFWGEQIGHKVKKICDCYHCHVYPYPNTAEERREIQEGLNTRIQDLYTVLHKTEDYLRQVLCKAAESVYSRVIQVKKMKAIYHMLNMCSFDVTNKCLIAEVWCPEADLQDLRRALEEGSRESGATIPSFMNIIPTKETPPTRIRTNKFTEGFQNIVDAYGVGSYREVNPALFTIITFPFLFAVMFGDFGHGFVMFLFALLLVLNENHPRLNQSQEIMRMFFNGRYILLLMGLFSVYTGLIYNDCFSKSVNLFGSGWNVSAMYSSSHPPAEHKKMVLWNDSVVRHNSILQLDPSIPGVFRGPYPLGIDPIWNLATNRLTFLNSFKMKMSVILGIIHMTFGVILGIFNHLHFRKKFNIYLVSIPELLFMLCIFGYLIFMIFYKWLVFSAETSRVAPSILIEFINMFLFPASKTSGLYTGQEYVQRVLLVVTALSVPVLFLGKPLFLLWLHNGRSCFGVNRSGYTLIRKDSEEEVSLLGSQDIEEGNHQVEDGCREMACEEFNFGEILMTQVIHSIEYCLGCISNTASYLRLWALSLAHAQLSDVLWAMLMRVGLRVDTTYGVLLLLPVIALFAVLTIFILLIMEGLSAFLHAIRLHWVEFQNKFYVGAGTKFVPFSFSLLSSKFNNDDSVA
UniProt P61421, whole entry, looked up: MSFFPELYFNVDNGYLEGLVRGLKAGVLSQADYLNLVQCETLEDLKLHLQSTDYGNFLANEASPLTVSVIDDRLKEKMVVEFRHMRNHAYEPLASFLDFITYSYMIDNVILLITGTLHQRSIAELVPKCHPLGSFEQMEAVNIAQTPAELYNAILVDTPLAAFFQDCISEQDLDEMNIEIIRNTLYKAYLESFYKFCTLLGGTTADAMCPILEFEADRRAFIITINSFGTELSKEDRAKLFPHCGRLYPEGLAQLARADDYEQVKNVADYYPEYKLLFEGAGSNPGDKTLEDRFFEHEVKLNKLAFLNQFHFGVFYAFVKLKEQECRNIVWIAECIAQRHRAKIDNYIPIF
UniProt Q9Y689: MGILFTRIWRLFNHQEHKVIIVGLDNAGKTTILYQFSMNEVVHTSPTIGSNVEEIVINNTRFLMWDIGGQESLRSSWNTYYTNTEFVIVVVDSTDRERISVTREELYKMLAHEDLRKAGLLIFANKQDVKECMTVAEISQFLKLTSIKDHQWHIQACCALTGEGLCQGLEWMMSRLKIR
UniProt Q9Y4P1: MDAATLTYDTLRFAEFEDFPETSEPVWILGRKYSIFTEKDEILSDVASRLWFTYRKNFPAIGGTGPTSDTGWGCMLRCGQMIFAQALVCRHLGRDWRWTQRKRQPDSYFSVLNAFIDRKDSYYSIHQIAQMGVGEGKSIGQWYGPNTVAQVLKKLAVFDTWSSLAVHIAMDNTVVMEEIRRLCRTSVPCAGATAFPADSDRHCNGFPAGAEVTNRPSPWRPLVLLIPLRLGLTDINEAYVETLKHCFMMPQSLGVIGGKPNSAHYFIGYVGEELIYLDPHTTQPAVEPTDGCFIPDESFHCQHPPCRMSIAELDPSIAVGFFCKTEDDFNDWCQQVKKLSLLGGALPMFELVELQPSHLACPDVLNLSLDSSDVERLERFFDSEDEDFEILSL
UniProt O95376: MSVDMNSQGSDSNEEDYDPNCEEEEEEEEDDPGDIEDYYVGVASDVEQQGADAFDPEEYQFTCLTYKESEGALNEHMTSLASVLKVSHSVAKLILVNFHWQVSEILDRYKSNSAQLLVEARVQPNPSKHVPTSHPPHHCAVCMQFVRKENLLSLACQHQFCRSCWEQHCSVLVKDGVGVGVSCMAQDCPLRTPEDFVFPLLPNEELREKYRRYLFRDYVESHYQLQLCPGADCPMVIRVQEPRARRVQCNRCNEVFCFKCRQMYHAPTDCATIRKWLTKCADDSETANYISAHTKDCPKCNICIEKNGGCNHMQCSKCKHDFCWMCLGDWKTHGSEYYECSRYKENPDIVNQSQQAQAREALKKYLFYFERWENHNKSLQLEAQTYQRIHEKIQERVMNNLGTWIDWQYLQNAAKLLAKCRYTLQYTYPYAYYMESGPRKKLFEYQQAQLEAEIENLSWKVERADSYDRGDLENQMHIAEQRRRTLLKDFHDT
UniProt Q15904, whole entry, looked up: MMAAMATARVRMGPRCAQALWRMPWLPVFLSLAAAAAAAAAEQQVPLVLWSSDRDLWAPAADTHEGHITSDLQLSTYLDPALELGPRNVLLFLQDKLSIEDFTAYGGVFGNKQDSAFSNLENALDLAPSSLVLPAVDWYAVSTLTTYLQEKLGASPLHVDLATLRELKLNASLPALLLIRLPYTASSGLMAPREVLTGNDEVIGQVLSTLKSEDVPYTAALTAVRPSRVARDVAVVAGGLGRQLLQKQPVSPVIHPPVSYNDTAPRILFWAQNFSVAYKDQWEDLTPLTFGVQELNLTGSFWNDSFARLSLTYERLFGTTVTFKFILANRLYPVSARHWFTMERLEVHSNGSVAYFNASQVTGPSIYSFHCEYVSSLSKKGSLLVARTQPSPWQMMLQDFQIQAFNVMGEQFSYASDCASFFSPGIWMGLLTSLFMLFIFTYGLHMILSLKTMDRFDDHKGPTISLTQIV
UniProt P56211: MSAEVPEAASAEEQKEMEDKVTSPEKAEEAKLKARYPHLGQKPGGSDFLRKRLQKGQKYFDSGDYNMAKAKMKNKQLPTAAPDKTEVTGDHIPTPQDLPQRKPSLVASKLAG
UniProt P54709, whole entry, looked up: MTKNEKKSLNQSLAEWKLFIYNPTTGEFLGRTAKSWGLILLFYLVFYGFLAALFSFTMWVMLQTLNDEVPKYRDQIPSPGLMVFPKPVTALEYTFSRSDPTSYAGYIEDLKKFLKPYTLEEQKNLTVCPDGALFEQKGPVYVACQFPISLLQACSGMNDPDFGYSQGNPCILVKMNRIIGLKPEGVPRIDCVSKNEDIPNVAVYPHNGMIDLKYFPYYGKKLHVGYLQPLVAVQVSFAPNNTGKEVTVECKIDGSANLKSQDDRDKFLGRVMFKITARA
UniProt Q93050, whole entry, looked up: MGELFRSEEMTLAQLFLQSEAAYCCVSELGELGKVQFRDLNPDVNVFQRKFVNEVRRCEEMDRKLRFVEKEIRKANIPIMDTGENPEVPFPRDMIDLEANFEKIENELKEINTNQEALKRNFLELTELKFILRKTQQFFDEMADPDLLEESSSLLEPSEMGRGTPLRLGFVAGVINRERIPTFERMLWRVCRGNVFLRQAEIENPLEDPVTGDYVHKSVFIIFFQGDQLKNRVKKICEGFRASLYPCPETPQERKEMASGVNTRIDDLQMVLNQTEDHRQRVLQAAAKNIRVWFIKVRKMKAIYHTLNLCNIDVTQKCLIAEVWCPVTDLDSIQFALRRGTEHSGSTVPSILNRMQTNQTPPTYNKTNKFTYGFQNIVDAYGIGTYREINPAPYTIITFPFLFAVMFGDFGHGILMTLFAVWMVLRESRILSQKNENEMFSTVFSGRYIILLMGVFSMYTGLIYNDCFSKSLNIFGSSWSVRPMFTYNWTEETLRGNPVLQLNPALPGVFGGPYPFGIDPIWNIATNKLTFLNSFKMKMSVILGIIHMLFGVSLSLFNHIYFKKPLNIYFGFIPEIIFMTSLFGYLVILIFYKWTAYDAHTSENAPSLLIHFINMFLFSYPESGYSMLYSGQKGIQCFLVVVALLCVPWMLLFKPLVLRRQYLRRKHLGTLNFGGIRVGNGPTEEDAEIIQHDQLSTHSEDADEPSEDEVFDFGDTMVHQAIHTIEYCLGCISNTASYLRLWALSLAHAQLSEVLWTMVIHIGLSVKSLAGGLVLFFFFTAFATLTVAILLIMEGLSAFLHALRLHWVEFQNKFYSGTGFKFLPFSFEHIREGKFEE
UniProt P35670: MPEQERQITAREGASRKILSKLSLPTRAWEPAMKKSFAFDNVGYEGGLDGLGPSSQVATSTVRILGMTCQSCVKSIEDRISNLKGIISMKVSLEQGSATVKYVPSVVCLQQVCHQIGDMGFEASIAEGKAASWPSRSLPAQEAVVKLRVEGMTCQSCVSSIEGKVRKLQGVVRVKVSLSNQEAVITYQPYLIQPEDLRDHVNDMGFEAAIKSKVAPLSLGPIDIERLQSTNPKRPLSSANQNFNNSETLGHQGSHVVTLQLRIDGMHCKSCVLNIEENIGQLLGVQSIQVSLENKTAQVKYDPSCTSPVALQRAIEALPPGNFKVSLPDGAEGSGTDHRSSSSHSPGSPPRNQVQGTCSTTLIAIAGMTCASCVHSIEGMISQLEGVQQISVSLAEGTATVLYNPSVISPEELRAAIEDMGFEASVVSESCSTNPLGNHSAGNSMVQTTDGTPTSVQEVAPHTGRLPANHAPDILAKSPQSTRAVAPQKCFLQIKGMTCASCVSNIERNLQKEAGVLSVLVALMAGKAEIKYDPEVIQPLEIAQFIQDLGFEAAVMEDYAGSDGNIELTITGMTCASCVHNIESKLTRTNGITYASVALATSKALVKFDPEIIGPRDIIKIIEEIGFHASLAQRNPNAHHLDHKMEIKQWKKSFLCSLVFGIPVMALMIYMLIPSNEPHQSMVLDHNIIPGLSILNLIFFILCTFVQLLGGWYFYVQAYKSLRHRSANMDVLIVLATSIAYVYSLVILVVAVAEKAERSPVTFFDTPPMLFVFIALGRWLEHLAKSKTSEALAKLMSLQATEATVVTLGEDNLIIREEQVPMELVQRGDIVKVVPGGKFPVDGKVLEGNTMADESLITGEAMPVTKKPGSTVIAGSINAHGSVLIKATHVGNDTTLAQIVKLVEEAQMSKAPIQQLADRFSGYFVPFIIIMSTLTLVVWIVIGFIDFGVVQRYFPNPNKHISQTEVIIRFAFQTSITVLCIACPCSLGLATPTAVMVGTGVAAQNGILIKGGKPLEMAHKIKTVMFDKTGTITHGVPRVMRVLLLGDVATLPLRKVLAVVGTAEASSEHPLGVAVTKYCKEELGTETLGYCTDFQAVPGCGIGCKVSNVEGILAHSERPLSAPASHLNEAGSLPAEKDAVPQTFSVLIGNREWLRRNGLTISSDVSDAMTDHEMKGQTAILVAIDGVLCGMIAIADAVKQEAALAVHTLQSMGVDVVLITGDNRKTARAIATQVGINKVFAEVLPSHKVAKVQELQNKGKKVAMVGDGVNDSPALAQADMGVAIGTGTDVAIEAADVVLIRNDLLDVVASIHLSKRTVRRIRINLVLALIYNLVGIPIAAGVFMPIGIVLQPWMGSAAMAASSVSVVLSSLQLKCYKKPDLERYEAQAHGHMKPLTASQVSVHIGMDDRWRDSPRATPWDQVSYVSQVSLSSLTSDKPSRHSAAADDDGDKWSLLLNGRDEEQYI
UniProt O00244: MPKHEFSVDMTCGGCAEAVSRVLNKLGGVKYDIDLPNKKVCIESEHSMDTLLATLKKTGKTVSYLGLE

[2] = compound: C/C(=N\NC(=O)C1=CC(=CC=C1)S(=O)(=O)N2CCOCC2)/C3=C(C=CC(=C3)Cl)O
Procedure, shortened: as §1

[3] = compound: C1=CC(=C(C=C1Cl)C2=NC3=NC=CN=C3C(=N2)NC4=CC=NC=C4)F
Procedure, shortened: as §1

[4] = compound: C1=CC(=CC=C1C2=NC3=C(N2)C=C(C=C3)C(=O)N)OC4=CC=C(C=C4)Cl
Procedure, shortened: as §1

[5] = compound: C1=CC2=C(C=CC(=C2)/C=C\3/C(=O)NC(=NCC4=CC=CS4)S3)N=C1
Procedure, shortened: as §1

[6] = compound: C1=CC2=NC=CN=C2C=C1/C=C/3\C(=O)NC(=O)S3
Procedure, shortened: as §1

[7] = compound: C1=CC=C(C=C1)C2=NC(=C(N2)C3=CC=NC=C3)C4=CC(=C(C=C4)Cl)O
Procedure, shortened: as §1

[8] = compound: C1=CC=C2C(=C1)C3=NNC4=CC=CC(=C43)C2=O
Procedure, shortened: as §1

[9] = compound: C1CCN(C1)C(=O)NC2=CC=CC(=C2)NC3=NC=C(C(=N3)NCCC4=CN=CN4)Br
Procedure, shortened: as §1

[10] = compound: C1CN(CCC1(CC2=CC=C(C=C2)Cl)N)C3=NC=NC4=C3C=CN4
Procedure, shortened: as §1

[11] = compound: C1COCCN1CCN2C3=CC=CC=C3N=C2NC(=O)C4=CC(=CC=C4)[N+](=O)[O-] [IRAK-1-4 Inhibitor I]
Procedure, shortened: as §1

[12] = compound: C=CC(=O)N1CCC[C@@H](n2nc(-c3ccc(Oc4ccccc4)cc3)c3c(N)ncnc32)C1 [ibrutinib]
Procedure, shortened: as §1

[13] = compound: CC(=O)c1cnc2ccc(-c3cc(Cl)c(O)c(Cl)c3)nc2c1N[C@H]1CC[C@H](CN(C)C)CC1
Procedure, shortened: as §1

[14] = compound: CC(C)(C)Cn1c(N)nc2ccc(-c3[nH]c(C(C)(C)C)nc3-c3ccc(F)cc3)nc21 [ralimetinib]
Procedure, shortened: as §1

[15] = compound: CC(C)(O)CC(=O)NCCn1ccc2ncnc(Nc3ccc(Oc4cccc(C(F)(F)F)c4)c(Cl)c3)c21
Procedure, shortened: as §1

[16] = compound: CC(C)C1=C2N=C(C=C(N2N=C1)NCC3=CC=CC=C3)NCCCCCCN
Procedure, shortened: as §1

[17] = compound: CC(C)C[C@@H](C=O)NC(=O)[C@H](CC(C)C)NC(=O)[C@H](CC(C)C)NC(=O)OCc1ccccc1
Procedure, shortened: as §1

[18] = compound: CC(C)N(C[C@H]1O[C@@H](n2cnc3c(N)ncnc32)[C@H](O)[C@@H]1O)[C@H]1C[C@@H](CCc2nc3cc(C(C)(C)C)ccc3[nH]2)C1 [pinometostat]
Procedure, shortened: as §1

[19] = compound: CC1=C(C2=C(C=C1)C(=O)C3=CC=CC=C3N2CCCN)C
Procedure, shortened: as §1

[20] = compound: CC1=C(C(CC(=O)N1)C2=CC=C(C=C2)C(F)(F)F)C(=O)NC3=C(C=C4C(=C3)C=NN4)F
Procedure, shortened: as §1

Row | Target | log2 fold change [1] | log2 fold change [2] | log2 fold change [3] | log2 fold change [4] | log2 fold change [5] | log2 fold change [6] | log2 fold change [7] | log2 fold change [8] | log2 fold change [9] | log2 fold change [10] | log2 fold change [11] | log2 fold change [12] | log2 fold change [13] | log2 fold change [14] | log2 fold change [15] | log2 fold change [16] | log2 fold change [17] | log2 fold change [18] | log2 fold change [19] | log2 fold change [20]
1 | ATIC (UniProt P31939) | inactive: 0.031 | inactive: 0.033 | inactive: 0.062 | inactive: 0.006 | inactive: 0.005 | inactive: -0.067 | inactive: 0.094 | inactive: 0.016 | inactive: -0.031 | inactive: 0.035 | inactive: 0.018 | inactive: 0.013 | inactive: -0.015 | inactive: -0.007 | inactive: 0 | inactive: 0.079 | inactive: -0.044 | inactive: -0.04 | inactive: 0.064 | 
2 | ATP13A3 (UniProt Q9H7F0) | inactive: 0.043 | inactive: -0.046 | inactive: 0.05 | inactive: 0.018 | inactive: 0.016 | inactive: 0.038 | inactive: -0.006 | inactive: -0.028 | inactive: 0.017 | inactive: 0.049 | inactive: 0.043 | inactive: -0.005 | inactive: 0.004 | inactive: -0.032 | inactive: -0.136 | inactive: -0.199 | inactive: 0.073 | inactive: -0.007 | inactive: -0.035 | 
3 | ATP5ME (UniProt P56385) | inactive: 0.013 | inactive: 0.037 | inactive: 0.136 | inactive: -0.007 | inactive: 0.085 | inactive: 0.051 | inactive: 0.023 | inactive: 0.002 | inactive: -0.051 | inactive: 0.013 | inactive: -0.003 | inactive: -0.002 | inactive: -0.019 | inactive: -0.04 | inactive: -0.044 | inactive: 0.031 | inactive: 0.011 | inactive: -0.036 | inactive: 0.039 | 
4 | ATP2A3 isoform 2 (UniProt Q93084) | inactive: -0.002 | inactive: -0.002 | inactive: 0.053 | inactive: -0.002 | inactive: -0.014 | inactive: 0.014 | inactive: -0.003 | inactive: -0.04 | inactive: -0.025 | inactive: 0.059 | inactive: 0.038 | inactive: -0.013 | inactive: 0.001 | inactive: -0.023 | inactive: 0.018 | active: -0.295 | inactive: -0.044 | inactive: 0.005 | inactive: -0.009 | 
5 | ATP6V0A2 (UniProt Q9Y487) | inactive: -0.009 | inactive: 0 | inactive: -0.045 | inactive: 0.031 | inactive: -0.025 | inactive: 0.031 | inactive: 0.024 | inactive: 0.041 | inactive: -0.016 | inactive: 0.002 | inactive: -0.006 | inactive: -0.026 | inactive: -0.017 | inactive: 0.057 | inactive: -0.01 | active: -0.297 | inactive: 0.049 | inactive: 0.054 | inactive: 0.003 | 
6 | ATP6V0D1 (UniProt P61421) | inactive: -0.059 | inactive: -0.004 | inactive: -0.063 | inactive: 0.099 | inactive: 0.134 | inactive: 0.051 | inactive: -0.058 | inactive: 0.2 | inactive: -0.083 | inactive: -0.205 | inactive: -0.035 | inactive: -0.049 | inactive: -0.016 | inactive: -0.036 | inactive: -0.022 | inactive: -0.358 | inactive: 0.001 | inactive: 0.131 | inactive: 0.097 | inactive: 0.068
7 | ATP1A4 (UniProt Q13733) | inactive: -0.076 | inactive: 0.033 | inactive: 0.183 | inactive: 0.046 | inactive: -0.051 | inactive: 0.063 | inactive: -0.003 | inactive: -0.112 | inactive: -0.009 | inactive: -0.015 | inactive: 0.002 | inactive: -0.013 | inactive: 0.032 | inactive: -0.025 | inactive: -0.025 | inactive: 0.121 | inactive: -0.033 | inactive: -0.017 | inactive: 0.03 | 
8 | ARL5A (UniProt Q9Y689) | inactive: -0.052 | inactive: -0.036 | inactive: -0.007 | inactive: -0.068 | inactive: 0.039 | inactive: -0.034 | inactive: 0.106 | inactive: 0 | inactive: -0.043 | inactive: 0.018 | inactive: 0.061 | inactive: 0.067 | inactive: 0.028 | inactive: 0.016 | inactive: -0.046 | inactive: 0.056 | inactive: -0.053 | inactive: -0.025 | inactive: 0.19 | inactive: 0.05
9 | ATG4B isoform 2 (UniProt Q9Y4P1) | inactive: -0.008 | inactive: 0.078 | inactive: 0.017 | inactive: 0.178 | inactive: 0.118 | inactive: 0.089 | inactive: 0.143 | inactive: -0.046 | inactive: -0.087 | inactive: -0.033 | inactive: 0.127 | inactive: -0.038 | inactive: -0.102 | inactive: 0.134 | inactive: -0.194 | inactive: -0.299 | inactive: -0.137 | inactive: -0.013 | inactive: 0.114 | 
10 | ARIH2 (UniProt O95376) | inactive: -0.015 | inactive: -0.059 | inactive: 0.053 | inactive: 0.006 | inactive: -0.089 | inactive: 0.044 | inactive: 0.015 | inactive: -0.062 | inactive: -0.018 | inactive: 0.051 | inactive: 0.032 | inactive: -0.01 | inactive: 0.058 | inactive: -0.014 | inactive: -0.01 | inactive: 0.021 | inactive: -0.036 | inactive: -0.066 | inactive: -0.002 | inactive: 0.019
11 | ATP6AP1 (UniProt Q15904) | inactive: -0.009 | inactive: -0.031 | inactive: -0.036 | inactive: 0.029 | inactive: -0.08 | inactive: -0.022 | inactive: -0.128 | inactive: -0.004 | inactive: 0.01 | inactive: -0.079 | inactive: -0.02 | inactive: 0 | inactive: -0.035 | inactive: 0.01 | inactive: 0.035 | inactive: -0.091 | inactive: 0.02 | inactive: 0.101 | inactive: -0.024 | 
12 | ARPP19 (UniProt P56211) | inactive: -0.01 | inactive: 0.003 | inactive: 0.076 | inactive: -0.032 | inactive: -0.061 | inactive: 0.041 | inactive: 0.026 | inactive: 0.014 | inactive: -0.024 | inactive: -0.018 | inactive: 0.052 | inactive: -0.009 | inactive: 0 | inactive: 0.048 | inactive: -0.051 | inactive: 0.048 | inactive: -0.071 | inactive: -0.157 | inactive: -0.074 | 
13 | ATP1B3 (UniProt P54709) | inactive: -0.016 | inactive: -0.004 | inactive: -0.002 | inactive: -0.019 | inactive: -0.021 | inactive: 0.023 | inactive: 0.057 | inactive: -0.052 | inactive: -0.024 | inactive: 0.048 | inactive: 0.025 | inactive: 0.043 | inactive: -0.03 | inactive: -0.036 | inactive: 0.01 | inactive: 0.154 | inactive: -0.008 | inactive: -0.056 | inactive: -0.032 | 
14 | ATP6V0A1 isoform 3 (UniProt Q93050) | inactive: -0.086 | inactive: -0.041 | inactive: -0.176 | inactive: 0.061 | inactive: 0 | inactive: -0.008 | inactive: -0.232 | inactive: 0.052 | inactive: -0.066 | inactive: -0.195 | inactive: -0.068 | inactive: 0 | inactive: -0.033 | inactive: 0.087 | inactive: 0.019 | active: -0.463 | inactive: 0.125 | inactive: 0.198 | inactive: 0.011 | 
15 | ATP7B (UniProt P35670) | inactive: -0.005 | inactive: 0.073 | inactive: -0.037 | inactive: 0.051 | inactive: 0.119 | inactive: 0.01 | inactive: 0.077 | inactive: -0.009 | inactive: -0.075 | inactive: -0.052 | inactive: -0.022 | inactive: -0.033 | inactive: 0.077 | inactive: 0.043 | inactive: 0.003 | inactive: 0.011 | inactive: 0.015 | inactive: 0.056 | inactive: 0.061 | 
16 | ATOX1 (UniProt O00244) | inactive: -0.033 | inactive: 0.307 | inactive: 0.141 | inactive: 0.068 | inactive: -0.089 | inactive: 0.074 | inactive: 0.242 | inactive: 0.112 | inactive: -0.061 | inactive: 0.024 | inactive: 0.018 | inactive: 0.01 | inactive: 0.154 | inactive: 0.23 | inactive: -0.005 | inactive: 0.109 | inactive: -0.198 | inactive: -0.153 | inactive: 0.099 | 

Shown with tabs: entries from further up
Row	Target	log2 fold change [1]	log2 fold change [2]	log2 fold change [3]	log2 fold change [4]	log2 fold change [5]	log2 fold change [6]	log2 fold change [7]	log2 fold change [8]	log2 fold change [9]	log2 fold change [10]	log2 fold change [11]	log2 fold change [12]	log2 fold change [13]	log2 fold change [14]	log2 fold change [15]	log2 fold change [16]	log2 fold change [17]	log2 fold change [18]	log2 fold change [19]	log2 fold change [20]
11	ATP6AP1 (UniProt Q15904)	inactive: -0.009	inactive: -0.031	inactive: -0.036	inactive: 0.029	inactive: -0.08	inactive: -0.022	inactive: -0.128	inactive: -0.004	inactive: 0.01	inactive: -0.079	inactive: -0.02	inactive: 0	inactive: -0.035	inactive: 0.01	inactive: 0.035	inactive: -0.091	inactive: 0.02	inactive: 0.101	inactive: -0.024	
12	ARPP19 (UniProt P56211)	inactive: -0.01	inactive: 0.003	inactive: 0.076	inactive: -0.032	inactive: -0.061	inactive: 0.041	inactive: 0.026	inactive: 0.014	inactive: -0.024	inactive: -0.018	inactive: 0.052	inactive: -0.009	inactive: 0	inactive: 0.048	inactive: -0.051	inactive: 0.048	inactive: -0.071	inactive: -0.157	inactive: -0.074	
